The filed quantity is “Percent Effect” (%).
How 0% and 100% were set is not recorded. Most values in the screen are low, and negative values occur.
Compounds were drawn at random from those tested, without regard to their results.

Sequences of proteins named here, by UniProt entry; tags and fusion partners are left off.
UniProt I6X8D2, whole entry: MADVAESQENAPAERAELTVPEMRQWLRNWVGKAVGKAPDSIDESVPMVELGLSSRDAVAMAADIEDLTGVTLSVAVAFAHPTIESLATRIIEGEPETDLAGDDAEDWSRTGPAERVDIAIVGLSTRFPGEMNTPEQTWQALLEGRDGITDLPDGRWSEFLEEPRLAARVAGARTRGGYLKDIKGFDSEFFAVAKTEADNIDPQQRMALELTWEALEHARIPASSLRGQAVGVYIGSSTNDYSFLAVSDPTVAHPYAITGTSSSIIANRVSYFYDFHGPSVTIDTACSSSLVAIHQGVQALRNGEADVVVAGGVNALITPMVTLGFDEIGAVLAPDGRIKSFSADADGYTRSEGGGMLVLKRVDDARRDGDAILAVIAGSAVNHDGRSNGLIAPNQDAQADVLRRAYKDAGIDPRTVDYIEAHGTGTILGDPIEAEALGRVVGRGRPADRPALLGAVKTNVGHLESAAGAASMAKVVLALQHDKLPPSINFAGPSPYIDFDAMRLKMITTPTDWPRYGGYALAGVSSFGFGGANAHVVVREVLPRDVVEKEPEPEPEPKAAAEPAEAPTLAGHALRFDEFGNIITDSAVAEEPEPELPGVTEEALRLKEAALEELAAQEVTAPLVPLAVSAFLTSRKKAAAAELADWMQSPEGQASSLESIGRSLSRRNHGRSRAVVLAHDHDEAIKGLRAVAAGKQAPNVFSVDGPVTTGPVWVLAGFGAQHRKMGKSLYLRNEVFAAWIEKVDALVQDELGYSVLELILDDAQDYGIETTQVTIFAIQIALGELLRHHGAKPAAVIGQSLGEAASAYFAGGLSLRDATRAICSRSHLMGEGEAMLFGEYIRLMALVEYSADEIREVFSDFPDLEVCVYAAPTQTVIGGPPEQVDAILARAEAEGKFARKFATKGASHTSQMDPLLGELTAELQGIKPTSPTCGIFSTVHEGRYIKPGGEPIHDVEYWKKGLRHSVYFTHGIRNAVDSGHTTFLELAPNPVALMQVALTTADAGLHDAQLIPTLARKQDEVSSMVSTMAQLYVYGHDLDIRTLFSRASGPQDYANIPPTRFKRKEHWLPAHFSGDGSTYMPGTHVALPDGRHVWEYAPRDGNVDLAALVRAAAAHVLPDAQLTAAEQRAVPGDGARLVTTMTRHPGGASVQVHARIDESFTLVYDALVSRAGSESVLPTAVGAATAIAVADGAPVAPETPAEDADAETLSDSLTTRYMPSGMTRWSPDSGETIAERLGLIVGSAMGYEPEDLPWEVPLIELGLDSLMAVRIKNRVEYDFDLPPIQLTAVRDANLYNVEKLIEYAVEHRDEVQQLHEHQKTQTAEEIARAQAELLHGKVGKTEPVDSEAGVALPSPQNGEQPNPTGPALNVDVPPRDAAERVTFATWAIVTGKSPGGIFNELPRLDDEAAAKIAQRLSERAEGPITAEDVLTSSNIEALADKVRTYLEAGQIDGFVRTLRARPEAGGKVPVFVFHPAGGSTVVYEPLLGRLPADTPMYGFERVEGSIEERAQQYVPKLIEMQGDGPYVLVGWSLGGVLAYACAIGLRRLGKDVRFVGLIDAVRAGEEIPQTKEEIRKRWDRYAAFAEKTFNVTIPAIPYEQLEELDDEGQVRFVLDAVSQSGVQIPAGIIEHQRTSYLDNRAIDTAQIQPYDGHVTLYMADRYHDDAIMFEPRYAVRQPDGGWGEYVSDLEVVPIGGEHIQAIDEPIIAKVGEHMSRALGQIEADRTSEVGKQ

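Enzyme assay of the thioesterase domain of polyketide synthase 13; the read-out is not stated. Target: Polyketide synthase Pks13, Mycobacterium tuberculosis (UniProt I6X8D2). Compounds at 30 µM. The record gives no direction; the compounds picked for IC50 retests had high values, so higher reads as stronger inhibition. About 67,000 compounds were tested under these conditions; 0.46% (about 300) showed 50% or more at least once.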

| # | Compound | effect |
|---|---|---|
| 1 | `CCc1nc(CC(=O)N2CCn3c(C)nnc3C2)cs1` | -10.4 |
| 2 | `CCN(CC)C(=O)c1nnn(-c2ccc(C)cc2)c1C1CC1` | -17.38 |
| 3 | `CCn1nccc1CN(C)C(=O)Cn1nc(C)c(C)c1C` | -8.865 |
| 4 | `CC(C)(C)NC(=O)COc1ccc(Oc2ccccn2)cc1` | -14.18 |
| 5 | `Cn1cc(C(=O)N[C@@H]2CN(CC3CCOCC3)[C@@H]3CCCO[C@@H]32)cn1` | -18.51 |
| 6 | `O=C(C1CC1)N1CC[C@H](c2nc3ccccc3o2)C1` | 19.75 |
| 7 | `CCc1[nH]ncc1C(=O)N1CCCC(n2cccn2)C1` (centres undefined) | -11.36 |
| 8 | `Cc1nc(C)n(CC2CN(c3ncnc4[nH]ccc34)CCO2)n1` (centres undefined) | -4.442 |
| 9 | `CO[C@H]1COCCN(C(=O)c2ccc(C#N)cc2)C1` | 10.07 |
| 10 | `Cc1[nH]c2ccccc2c1CCNC(=O)N1CCC2(C1)OCCO2` | -22.58 |
| 11 | `N#Cc1ccccc1CN1C[C@@H]2CC[C@H](C1)N(Cc1cscn1)C2=O` | -21.49 |
| 12 | `Cc1nc(N2CCOCC2)nc(C)c1NC(=O)COc1ccccc1` | -29.91 |
| 13 | `O=C(c1cccnc1)N1CCc2[nH]nc(Nc3ccccc3)c2C1` | -3.385 |
| 14 | `CSC(C)C(=O)N1CCCN(Cc2nccn2C)CC1` (centres undefined) | -11.99 |
| 15 | `CCOc1ccc(CN2CC[C@](C)(O)C(C)(C)C2)cn1` | -36.34 |
| 16 | `CCCNC(=O)c1cc(C(C)C)nc(N2CCCCC2)n1` | -14.42 |
| 17 | `Cc1ncsc1CN1CCN(C2CCOCC2)CC(C(N)=O)C1` (centres undefined) | -8.211 |
| 18 | `O=C(c1ccoc1)N1CCOC2(COCCN(CC3CC3)C2)C1` (centres undefined) | 10.22 |
| 19 | `CCc1nc(CN(C)C2CCN(CCNS(=O)(=O)CC)C2)no1` (centres undefined) | -5.953 |
| 20 | `COc1ccccc1C(O)Cn1cc(C(=O)NCc2ccco2)nn1` (centres undefined) | -29.99 |
| 21 | `O=C(c1cnccn1)N1CCN(Cc2ccncc2)c2ncccc2C1` | -10.9 |
| 22 | `Cc1ccc(C(=O)Nc2cn[nH]c2)cc1C` | -5.104 |
| 23 | `COCCN(C)C[C@@H]1CN(C(=O)c2sc3ccccc3c2C)C[C@@H]1CO` | -10.51 |
| 24 | `Cn1cccc1C(=O)N1CCCCC1c1[nH]ncc1S(C)(=O)=O` (centres undefined) | -8.336 |
| 25 | `COc1ccc(N(C)C(=O)c2cccc(S(C)(=O)=O)c2)cn1` | -11.12 |
| 26 | `COc1ccc(C(C)N2CCC(C(=O)NC3CC3)CC2)cc1Cl` (centres undefined) | -34.03 |
| 27 | `N#Cc1ccc(S(=O)(=O)NC(=O)C2CC(c3ccccc3)=NO2)cc1` (centres undefined) | -0.8663 |
| 28 | `Cn1cncc1-c1nnc([C@H]2CCN(CC(C)(C)C)C2)o1` | 25.73 |
| 29 | `CCN1CCN(S(=O)(=O)c2c[nH]c(C(C)C)n2)c2ccccc21` | -41 |
| 30 | `CCC(=O)N1CCc2[nH]cnc2C12CCN(C(=O)CCS(C)(=O)=O)CC2` | -11.8 |
| 31 | `Cc1cc(C)nc(N2CCC(CNC(=O)c3ccccn3)CC2)n1` | -6.449 |
| 32 | `Cc1nc(CN2C[C@H]3C[C@H](C(=O)NCC4CC4)N(C)[C@H]3C2)cs1` | 16.78 |
| 33 | `CCNC(=O)CNS(=O)(=O)Cc1cc(-c2ccccc2)no1` | -15.78 |
| 34 | `COc1ccc(F)c(-c2ncccc2NC(=O)C(C)C)c1` | -26.03 |
| 35 | `Cc1ccnc(C2(C)CCCN2C(=O)c2cnccn2)n1` (centres undefined) | -1.805 |
| 36 | `Cn1nc(CNC(=O)CN2C(=O)CCC2=O)cc1C1CC1` | -15.51 |
| 37 | `COc1cc2nc3n(c(=O)c2cc1OC)CCN(C(=O)C(C)(C)C)CC3` | 0.7802 |
| 38 | `CO[C@@H]1CCN(Cc2nccn2C)[C@H]1Cc1cccnc1` | -91.58 |
| 39 | `Cc1cc(NCCc2nc(C)cs2)nc(-c2cccnc2)n1` | -4.072 |
| 40 | `CSCc1cc(C(=O)NC2(C#N)CCSC2)ccc1F` (centres undefined) | -19.28 |
| 41 | `CNC(=O)c1ccc(NC2CCN(CC(F)(F)F)C2=O)cc1Cl` (centres undefined) | 0.1478 |
| 42 | `Cc1cc(CN2CCc3cncnc3C2)on1` | 22.2 |
| 43 | `CC(C)(C)n1ncc2c1NC(=O)CC2c1ccsc1` (centres undefined) | -1.682 |
| 44 | `CC(=O)N1CCN(CCNC(=O)NC(C)Cn2ccnc2)CC1` (centres undefined) | -44.44 |
| 45 | `Cc1nn(C)c2ncnc(N3CCCC(C)(O)C3)c12` (centres undefined) | -6.683 |
| 46 | `Cc1ccc(C(=O)N2CC(C(N)=O)O[C@H](C)C2)c(F)c1` (some centres undefined) | -2.441 |
| 47 | `Cc1ccc(NS(=O)(=O)c2cc3c(c(C(=O)O)c2)OCCO3)c(F)c1` | -35.02 |
| 48 | `CC(=O)N(C)Cc1cccc(NC(=O)N(C)CCc2cccs2)c1` | -3.754 |
| 49 | `COc1ccc(C2(C(=O)NC3CCc4nccn4C3)CCCC2)cc1` (centres undefined) | -15.91 |
| 50 | `Cc1cc(CNC(=O)N2CCc3ccccc32)on1` | -11.65 |
| 51 | `c1ccc(O[C@@H]2CO[C@@]3(CCCN(CC4CCOCC4)C3)C2)nc1` | -4.304 |
| 52 | `CCCn1nc2c(cc1=O)CN(c1ncnc3sccc13)CC2` | 0.03235 |
| 53 | `Cn1cc(-c2csc(N3CCSCC3)n2)cn1` | -19.56 |
| 54 | `O=C(NCCn1ccnc1)c1cc(Br)c[nH]1` | -33.9 |
| 55 | `CNC(=O)c1cc2c(nc1NCC(C)C)CCN(S(=O)(=O)C1CC1)CC2` | -13.91 |
| 56 | `CCOc1cc(C)nc(N2CCN(C(=O)c3csnn3)CC2)n1` | -0.4931 |
| 57 | `CCN(Cc1ccc2c(c1)OCO2)C(=O)c1ccc(=O)n(C)c1` | -7.996 |
| 58 | `COc1ccnc(N2C[C@@H]3CC[C@H](C2)N(CC2CCC2)C3=O)n1` | -15.27 |
| 59 | `Cc1nn(C)c(N(C)C)c1CNCc1cccnc1N1CCOCC1` | -7.316 |
| 60 | `CC(C)(C)CNCC1(O)CCCN(Cc2ccccc2F)C1=O` (centres undefined) | -16.11 |
| 61 | `COc1ccc(Cl)cc1CN(C)C(=O)CN1C(=O)OC[C@@H]1C(C)C` | -24.35 |
| 62 | `COCCNC(=O)NCCc1cccc(OC)c1O` | 10.63 |
| 63 | `CNC(=O)C1Cn2ccnc2C2(CCN(C(=O)CC3CCCC3)CC2)O1` (centres undefined) | -24.4 |
| 64 | `CCc1cccc(NC(=O)N2CCn3cnc(COC)c3C2)c1` | -12.5 |
| 65 | `COc1ccc(OC)c([C@@H]2N[C@H](c3nccs3)Cc3ccsc32)c1` | 22.24 |
| 66 | `Cc1ccc(C)c(CC(=O)NC2CCS(=O)(=O)CC2)c1` | 14.53 |
| 67 | `Cc1cc(NCc2ccco2)nc2[nH]nc(N)c12` | -22.64 |
| 68 | `CC(=O)N1CCN(Cc2coc(-c3cccc(F)c3)n2)CC1` | -16.66 |
| 69 | `CCCc1nc(C(C)(C)NC(=O)C2CC(=O)N(CC(C)C)C2)no1` (centres undefined) | 6.501 |
| 70 | `Cn1cc(N2CCN(c3ccc(C#N)cc3F)CC2=O)cn1` | -1.589 |
| 71 | `c1ncc(-c2cn(CCSc3cnn[nH]3)nn2)cn1` | -146.7 |
| 72 | `Clc1cc(CN2CCCCC2Cn2cncn2)c2ncccc2c1` (centres undefined) | -6.729 |

Some entries from above, unchanged:

For CCN(Cc1ccc2c(c1)OCO2)C(=O)c1ccc(=O)n(C)c1 the result was -7.996%.
For CC(C)(C)CNCC1(O)CCCN(Cc2ccccc2F)C1=O (centres undefined) the result was -16.11%.
For CNC(=O)C1Cn2ccnc2C2(CCN(C(=O)CC3CCCC3)CC2)O1 (centres undefined) the result was -24.4%.
For CC(C)(C)NC(=O)COc1ccc(Oc2ccccn2)cc1 the result was -14.18%.
For Cc1cc(NCCc2nc(C)cs2)nc(-c2cccnc2)n1 the result was -4.072%.
For CCc1nc(CC(=O)N2CCn3c(C)nnc3C2)cs1 the result was -10.4%.

Measurements from “University of Dundee, Small-Polar-MMV Screening Library” (2021), ChEMBL document CHEMBL3988442.